# Structures can show the parent of a compound that is named as a salt. The list shows a part of the results. Single values are uncertain here, since repeats match poorly.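 Human kidney-derived cells stably carry a construct in which eight TEAD-binding elements drive luciferase, measured by luminescence in a drug-repurposing library screen. A hit is any compound whose signal exceeds the plate mean by more than five robust Z scores.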
# Tested on: HEK293A TEAD-LUC reporter
# Assay: TEAD-luciferase reporter activity (YAP activation), robust Z score vs plate; higher = stronger YAP/TEAD activation
# Conditions: 24 h
Compound,TEAD-luciferase reporter activity (compound concentration: 200 nM),TEAD-luciferase reporter activity (compound concentration: 2 uM),TEAD-luciferase reporter activity (compound concentration: 10 uM)
O=C(O)Cc1cn(-c2ccccc2)nc1-c1ccc(Cl)cc1 [lonazolac calcium],inactive: -1.56,inactive: -0.195,inactive: 1.51
CC(=O)CCCC(C)(C)CO,inactive: -1.79,inactive: 2.24,inactive: -1.96
CC(C)C[C@H](NC(=O)[C@H](C)NC(=O)[C@H](CCCNC(=N)N)NC(=O)[C@H](CCC(=O)O)NC(=O)[C@H](CC(C)C)NC(=O)[C@H](CCC(N)=O)NC(=O)[C@H](CCC(=O)O)NC(=O)[C@@H]1CCC(=O)N1)C(=O)N[C@@H](CC(N)=O)C(=O)N[C@@H](CO)C(=O)N[C@@H](CO)C(=O)O,inactive: 0.786,inactive: -1.77,inactive: -0.0274
CN(C)C(=O)NC1CCN(c2nc3ncccc3o2)CC1,active: 6.35,–,inactive: -0.86
O=C(OCCN1CCCC1)c1ccccc1Nc1ccnc2cc(C(F)(F)F)ccc12,inactive: -0.612,inactive: -1.11,inactive: -0.19
Nc1nc2cc(-c3ccc4ncc(C(=O)N5CCOCC5)n4c3)ccc2o1,inactive: -1.63,inactive: -0.838,inactive: -0.22
COC(=O)C(Cc1ccccc1)NC(=O)C(N)CC(=O)O (stereo not given),inactive: -0.186,inactive: -0.258,inactive: 1.18
CN(NC(=O)CC(=O)NN(C)C(=S)c1ccccc1)C(=S)c1ccccc1 [elesclomol],–,inactive: -0.483,–
CN(NC(=O)CC(=O)NN(C)C(=S)c1ccccc1)C(=S)c1ccccc1 [Elesclomol],inactive: -3.59,–,inactive: -3.35
CC(C)C[C@H](NC(=O)[C@@H](O)[C@H](N)Cc1ccccc1)C(=O)O,inactive: -0.72,–,inactive: -0.14
CC(C)C[C@H](NC(=O)[C@@H](O)[C@H](N)Cc1ccccc1)C(=O)O [Ubenimex],–,inactive: -1.52,–
COc1ccc(CCN2CCC[C@H](CN3CCc4cc(OC)c(OC)cc4CC3=O)C2)cc1OC [Cilobradine],inactive: -0.778,inactive: -1.22,inactive: -0.77
CCOc1ccc2[nH]c(SCCN3CCOCC3)nc2c1 [Fabomotizole hydrochloride],inactive: 0.645,inactive: 0.105,inactive: 0.456
COC(=O)C1=C(C)NC(C)=C(C(=O)OCC2COC3(CCN(c4ccc(Cl)cc4)CC3)O2)C1c1cccc([N+](=O)[O-])c1 (stereo not given),inactive: -0.0151,inactive: -1.3,inactive: 0.199
CC(=O)[C@@]1(O)CCC2C3CCC4=CC(=O)CCC4(C)C3[C@H](O)CC21C (stereo not given in full),inactive: 0.655,inactive: -1.15,inactive: 0.367
COCCCC=C(NOCCN)c1ccc(C(F)(F)F)cc1 [fluvoxamine CR],inactive: -0.51,inactive: 0.157,inactive: 1.08
CN1C(C(=O)Nc2nccs2)C(=O)c2ccccc2S1(=O)=O (stereo not given) [sudoxicam],inactive: -0.269,inactive: -0.523,inactive: -0.0239
Oc1ccc([C@@H]2COc3cc(O)ccc3[C@H]2O)cc1,inactive: -0.703,inactive: 0.925,active: 7.38
CN(C)CCOC(c1ccccc1)c1ccccc1.Cn1c(=O)c2[nH]c(Cl)nc2n(C)c1=O [dimenhydrinate CDT],–,inactive: -0.43,–
"CN(C)CCOC(c1ccccc1)c1ccccc1.Cn1c(=O)c2[nH]c(Cl)nc2n(C)c1=O [dimenhydrinate CDT, SCOLR]",inactive: 0.278,–,inactive: -0.953
C=C1/C(=C\C=C2/CCC[C@]3(C)[C@@H]([C@H](C)CCCC(C)C)CC[C@@H]23)C[C@@H](O)C[C@@H]1O [Alfacalcidol],inactive: 0.894,inactive: 0.141,inactive: -0.197
NCCON=C1c2ccccc2C2CC2c2ccccc21 (stereo not given) [mariptiline],inactive: -0.491,inactive: -0.86,inactive: 2.05
CC(=O)OC(CC(=O)O)C[N+](C)(C)C [acetyl L-carnitine],inactive: 0.683,inactive: 0.0246,inactive: 1.04
NCCCC[C@H](NC(=O)[C@@H](Cc1cc(Br)c(O)c(Br)c1)NC(=O)N1CCC(N2Cc3ccccc3NC2=O)CC1)C(=O)N1CCN(c2ccncc2)CC1,–,inactive: -0.447,–
NCCCC[C@H](NC(=O)[C@@H](Cc1cc(Br)c(O)c(Br)c1)NC(=O)N1CCC(N2Cc3ccccc3NC2=O)CC1)C(=O)N1CCN(c2ccncc2)CC1 [olcegepant],inactive: 2.89,–,inactive: -0.775
CCN(CC)C(=O)/C(C#N)=C/c1cc(O)c(O)c([N+](=O)[O-])c1 [entacapone],inactive: 0.788,inactive: -1.88,inactive: 1.57
CCCc1cc(C2=N[C@@H](C(=O)NO)CO2)cc(OC)c1OC,inactive: -1.71,inactive: -1.51,inactive: 1.43

Compound,TEAD-luciferase reporter activity (compound concentration: 200 nM),TEAD-luciferase reporter activity (compound concentration: 2 uM),TEAD-luciferase reporter activity (compound concentration: 10 uM)
CON=C(C(=O)NC1C(=O)N2C(C(=O)O)=C(CSc3nc(C)c(CC(=O)O)s3)CSC12)c1csc(N)n1 (stereo not given) [cefodizime],–,inactive: -1.19,–
CON=C(C(=O)NC1C(=O)N2C(C(=O)O)=C(CSc3nc(C)c(CC(=O)O)s3)CSC12)c1csc(N)n1 (stereo not given) [Cefodizime],inactive: -2.31,–,inactive: 2.38
CCCCCCCN(CCCCCSc1nc(-c2ccccc2)c(-c2ccccc2)[nH]1)C(=O)Nc1ccc(F)cc1F [Lecimibide],inactive: -0.363,inactive: -0.171,inactive: 1.22
Cc1c(C)n(CC2CC2C)c2c(OCc3ccc(F)cc3)nncc12 (stereo not given),inactive: 0.0217,inactive: -0.663,inactive: -1.01
CC(=O)NC(Cc1ccc2ccccc2c1)C(=O)NC(Cc1ccc(Cl)cc1)C(=O)NC(Cc1cccnc1)C(=O)NC(CO)C(=O)NC(CCCCNC(=O)c1cccnc1)C(=O)NC(CCCCNC(=O)c1cccnc1)C(=O)NC(CC(C)C)C(=O)NC(CCCCNC(C)C)C(=O)N1CCCC1C(=O)NC(C)C(N)=O (stereo not given) [Iturelix],inactive: -0.0812,inactive: -0.588,inactive: 3.37
CCCCCCCCCCCCCCC[C@@H](O)[C@@H](CO)NC(C)=O,inactive: -1.23,inactive: 1.84,inactive: 0.707
CCc1nc2c(C)cc(N3CCN(CC(=O)N4CC(O)C4)CC3)cn2c1N(C)c1nc(-c2ccc(F)cc2)c(C#N)s1,inactive: -1.39,inactive: 0.0368,inactive: -0.667
Nc1ncnc2c([C@@H]3N[C@H](CO)[C@@H](O)[C@H]3O)c[nH]c12 [Galidesivir],inactive: -1.32,inactive: -1.07,inactive: 0.459
CS(=O)(=O)c1ccc(-c2nc3n(c2-c2ccncc2)CCC3)cc1,inactive: -0.335,inactive: 0.308,inactive: 0.852
CC(=O)CCc1nc(N)c2nc(-n3nccn3)n(C)c2n1,inactive: 2.12,inactive: -1.04,inactive: -0.708
O=C(c1ccc(F)cc1)C1CCN(CCCCn2c(=O)[nH]c3ccccc3c2=O)CC1,inactive: -0.0738,inactive: 0.589,inactive: 0.616
Cc1c2ccnc(C(=O)NCCN(C)C)c2cc2c3cc(O)ccc3n(C)c12,inactive: -1.18,inactive: 2.53,inactive: 2.8
NCCCC[C@@H](N)C(=O)N[C@H](CO)C(=O)O,inactive: 1.14,inactive: -0.776,inactive: -1.35
CCCCCCCCCCCCC(=O)N1CCCCC1CNC(=O)[C@@H](N)CCCCN (stereo not given in full),inactive: -0.561,inactive: -1.43,inactive: -0.505
CC(C)(C)C(=O)NC1CCN(c2nc3ncccc3o2)CC1,inactive: 3.63,–,inactive: 0.905
CC12CCC(=O)C=C1CCC1C2CCC2(C)C1CC[C@]2(O)C(=O)CO (stereo not given in full) [cortodoxone],inactive: -0.0568,inactive: -2.47,inactive: 1.35
CC(C)(O)CC(=O)NCCn1ccc2ncnc(Nc3ccc(Oc4cccc(C(F)(F)F)c4)c(Cl)c3)c21,inactive: -0.827,inactive: -1.75,inactive: -1.4
C[C@H]1SC[C@]2(O1)CN1CC[C@H]2CC1 [cevimeline hydrochloride],inactive: 1.26,inactive: -0.945,inactive: 1.19
CC(=O)OCn1ncc2c(O)ncnc21,inactive: -0.608,inactive: -1.82,inactive: 0.0866
CCCCCCCCc1ccc(CCC(N)(CO)CO)cc1 [fingolimod hydrochloride],inactive: -0.597,inactive: -1.49,inactive: 3.42
CC(=O)N1Cc2ccccc2CC12CCCN(C(=O)CCCN(C)C)C2 (stereo not given),inactive: -0.757,–,active: 5.88
CCOc1cc(OCC)c(C(=O)CCC(=O)O)cc1OCC [trepibutone],inactive: 1.14,inactive: -1.51,inactive: 1.02
Cc1c(C)c2ccc(OCCCN3CCN(Cc4ccc(Cl)cc4)CC3)cc2oc1=O,inactive: -1.01,inactive: 3,inactive: -0.205
COc1ccccc1OC1(C)OC(=O)c2ccccc2O1 (stereo not given) [guaimesal],inactive: -1.44,inactive: -1.07,inactive: -0.936
O=C1c2ccccc2CN1C1CCN(Cc2ccc(C(F)(F)F)cc2)CC1,inactive: 1.64,–,active: 27.6
Cc1ncc([N+](=O)[O-])n1CCc1ccncc1,inactive: -1.48,inactive: -1.08,inactive: 0.395

# Shown as tab-separated lines: entries from further up.
Compound	TEAD-luciferase reporter activity (compound concentration: 200 nM)	TEAD-luciferase reporter activity (compound concentration: 2 uM)	TEAD-luciferase reporter activity (compound concentration: 10 uM)
CN(C)C(=O)NC1CCN(c2nc3ncccc3o2)CC1	active: 6.35	–	inactive: -0.86
O=C(OCCN1CCCC1)c1ccccc1Nc1ccnc2cc(C(F)(F)F)ccc12	inactive: -0.612	inactive: -1.11	inactive: -0.19
CN(NC(=O)CC(=O)NN(C)C(=S)c1ccccc1)C(=S)c1ccccc1 [Elesclomol]	inactive: -3.59	–	inactive: -3.35
CCOc1ccc2[nH]c(SCCN3CCOCC3)nc2c1 [Fabomotizole hydrochloride]	inactive: 0.645	inactive: 0.105	inactive: 0.456
Oc1ccc([C@@H]2COc3cc(O)ccc3[C@H]2O)cc1	inactive: -0.703	inactive: 0.925	active: 7.38
CN(C)CCOC(c1ccccc1)c1ccccc1.Cn1c(=O)c2[nH]c(Cl)nc2n(C)c1=O [dimenhydrinate CDT]	–	inactive: -0.43	–
NCCON=C1c2ccccc2C2CC2c2ccccc21 (stereo not given) [mariptiline]	inactive: -0.491	inactive: -0.86	inactive: 2.05
CCCCCCCN(CCCCCSc1nc(-c2ccccc2)c(-c2ccccc2)[nH]1)C(=O)Nc1ccc(F)cc1F [Lecimibide]	inactive: -0.363	inactive: -0.171	inactive: 1.22
CC(=O)NC(Cc1ccc2ccccc2c1)C(=O)NC(Cc1ccc(Cl)cc1)C(=O)NC(Cc1cccnc1)C(=O)NC(CO)C(=O)NC(CCCCNC(=O)c1cccnc1)C(=O)NC(CCCCNC(=O)c1cccnc1)C(=O)NC(CC(C)C)C(=O)NC(CCCCNC(C)C)C(=O)N1CCCC1C(=O)NC(C)C(N)=O (stereo not given) [Iturelix]	inactive: -0.0812	inactive: -0.588	inactive: 3.37
CS(=O)(=O)c1ccc(-c2nc3n(c2-c2ccncc2)CCC3)cc1	inactive: -0.335	inactive: 0.308	inactive: 0.852
CCCCCCCCc1ccc(CCC(N)(CO)CO)cc1 [fingolimod hydrochloride]	inactive: -0.597	inactive: -1.49	inactive: 3.42
COc1ccccc1OC1(C)OC(=O)c2ccccc2O1 (stereo not given) [guaimesal]	inactive: -1.44	inactive: -1.07	inactive: -0.936
